Measured values published in the supplement of paper PMC10849652.
The other results are listed elsewhere or left out.

Protein sequences, listed by entry. Tags and fused reporters are not part of them. Lines headed by an entry give the natural chain unless they say otherwise; changes in a name come on top.
UniProt Q96MX0: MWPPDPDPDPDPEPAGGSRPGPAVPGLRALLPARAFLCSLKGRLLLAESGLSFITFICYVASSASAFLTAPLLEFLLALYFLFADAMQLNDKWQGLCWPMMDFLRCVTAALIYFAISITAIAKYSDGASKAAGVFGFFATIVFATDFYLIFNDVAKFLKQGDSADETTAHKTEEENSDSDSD
UniProt Q14011: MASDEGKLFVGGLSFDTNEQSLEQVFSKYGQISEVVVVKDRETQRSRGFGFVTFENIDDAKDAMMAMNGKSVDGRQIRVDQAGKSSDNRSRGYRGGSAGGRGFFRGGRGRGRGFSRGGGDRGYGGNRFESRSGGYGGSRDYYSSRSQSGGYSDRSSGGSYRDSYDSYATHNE
UniProt P12277: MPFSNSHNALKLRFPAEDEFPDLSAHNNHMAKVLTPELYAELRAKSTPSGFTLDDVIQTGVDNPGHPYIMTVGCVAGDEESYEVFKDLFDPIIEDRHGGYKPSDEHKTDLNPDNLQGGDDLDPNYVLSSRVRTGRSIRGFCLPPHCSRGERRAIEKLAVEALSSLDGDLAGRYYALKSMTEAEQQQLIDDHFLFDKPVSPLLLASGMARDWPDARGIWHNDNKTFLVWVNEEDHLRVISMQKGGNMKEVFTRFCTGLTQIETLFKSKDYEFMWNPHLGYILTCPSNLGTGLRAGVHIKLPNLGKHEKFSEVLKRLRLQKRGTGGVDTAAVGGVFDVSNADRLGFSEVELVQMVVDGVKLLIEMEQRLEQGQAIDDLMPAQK
UniProt Q9HAW4: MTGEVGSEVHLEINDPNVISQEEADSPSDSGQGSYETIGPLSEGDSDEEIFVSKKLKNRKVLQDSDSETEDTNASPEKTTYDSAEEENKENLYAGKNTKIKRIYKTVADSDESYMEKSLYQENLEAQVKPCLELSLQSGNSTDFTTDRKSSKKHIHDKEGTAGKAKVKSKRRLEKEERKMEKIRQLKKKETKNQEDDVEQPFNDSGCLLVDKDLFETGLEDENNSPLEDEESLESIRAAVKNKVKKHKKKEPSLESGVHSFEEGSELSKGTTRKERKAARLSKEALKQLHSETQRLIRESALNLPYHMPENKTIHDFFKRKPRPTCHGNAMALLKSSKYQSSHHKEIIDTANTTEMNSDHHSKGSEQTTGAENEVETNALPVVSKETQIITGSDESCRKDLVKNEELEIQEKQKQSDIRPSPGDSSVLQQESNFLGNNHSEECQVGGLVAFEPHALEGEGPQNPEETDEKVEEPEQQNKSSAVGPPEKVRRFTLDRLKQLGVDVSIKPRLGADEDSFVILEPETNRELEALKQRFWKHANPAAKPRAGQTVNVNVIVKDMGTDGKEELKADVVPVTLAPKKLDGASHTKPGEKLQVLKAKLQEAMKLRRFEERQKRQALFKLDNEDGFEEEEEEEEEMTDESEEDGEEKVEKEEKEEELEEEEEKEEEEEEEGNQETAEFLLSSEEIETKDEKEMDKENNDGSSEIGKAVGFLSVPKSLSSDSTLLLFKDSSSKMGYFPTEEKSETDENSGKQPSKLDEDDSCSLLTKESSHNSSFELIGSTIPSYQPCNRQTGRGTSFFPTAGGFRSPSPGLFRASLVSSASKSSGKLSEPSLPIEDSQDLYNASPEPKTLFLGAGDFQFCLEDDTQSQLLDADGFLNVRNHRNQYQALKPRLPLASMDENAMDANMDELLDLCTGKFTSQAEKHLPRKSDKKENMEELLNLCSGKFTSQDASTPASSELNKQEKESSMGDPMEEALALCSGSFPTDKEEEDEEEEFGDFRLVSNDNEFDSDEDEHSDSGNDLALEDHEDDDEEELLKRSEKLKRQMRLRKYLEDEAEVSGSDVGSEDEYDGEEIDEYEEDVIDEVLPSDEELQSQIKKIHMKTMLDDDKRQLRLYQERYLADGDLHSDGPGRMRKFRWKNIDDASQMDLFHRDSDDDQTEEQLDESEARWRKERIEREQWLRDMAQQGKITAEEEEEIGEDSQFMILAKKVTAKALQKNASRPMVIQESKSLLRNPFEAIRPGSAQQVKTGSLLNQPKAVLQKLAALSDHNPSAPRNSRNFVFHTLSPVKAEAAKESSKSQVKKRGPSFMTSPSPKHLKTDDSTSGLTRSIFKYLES
UniProt Q96KP4: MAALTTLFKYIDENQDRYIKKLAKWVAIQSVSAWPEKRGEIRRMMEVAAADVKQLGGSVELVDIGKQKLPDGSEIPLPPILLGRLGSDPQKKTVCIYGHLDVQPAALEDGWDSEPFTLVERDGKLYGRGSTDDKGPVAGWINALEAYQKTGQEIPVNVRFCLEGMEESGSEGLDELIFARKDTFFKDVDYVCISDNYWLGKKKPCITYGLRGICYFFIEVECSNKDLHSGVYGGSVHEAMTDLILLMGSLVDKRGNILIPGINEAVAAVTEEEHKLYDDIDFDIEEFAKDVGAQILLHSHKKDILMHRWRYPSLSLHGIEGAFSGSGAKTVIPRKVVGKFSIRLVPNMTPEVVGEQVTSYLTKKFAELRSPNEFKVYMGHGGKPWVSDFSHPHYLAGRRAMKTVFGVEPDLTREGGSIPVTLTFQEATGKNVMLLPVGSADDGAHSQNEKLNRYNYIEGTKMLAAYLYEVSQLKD
UniProt O75153: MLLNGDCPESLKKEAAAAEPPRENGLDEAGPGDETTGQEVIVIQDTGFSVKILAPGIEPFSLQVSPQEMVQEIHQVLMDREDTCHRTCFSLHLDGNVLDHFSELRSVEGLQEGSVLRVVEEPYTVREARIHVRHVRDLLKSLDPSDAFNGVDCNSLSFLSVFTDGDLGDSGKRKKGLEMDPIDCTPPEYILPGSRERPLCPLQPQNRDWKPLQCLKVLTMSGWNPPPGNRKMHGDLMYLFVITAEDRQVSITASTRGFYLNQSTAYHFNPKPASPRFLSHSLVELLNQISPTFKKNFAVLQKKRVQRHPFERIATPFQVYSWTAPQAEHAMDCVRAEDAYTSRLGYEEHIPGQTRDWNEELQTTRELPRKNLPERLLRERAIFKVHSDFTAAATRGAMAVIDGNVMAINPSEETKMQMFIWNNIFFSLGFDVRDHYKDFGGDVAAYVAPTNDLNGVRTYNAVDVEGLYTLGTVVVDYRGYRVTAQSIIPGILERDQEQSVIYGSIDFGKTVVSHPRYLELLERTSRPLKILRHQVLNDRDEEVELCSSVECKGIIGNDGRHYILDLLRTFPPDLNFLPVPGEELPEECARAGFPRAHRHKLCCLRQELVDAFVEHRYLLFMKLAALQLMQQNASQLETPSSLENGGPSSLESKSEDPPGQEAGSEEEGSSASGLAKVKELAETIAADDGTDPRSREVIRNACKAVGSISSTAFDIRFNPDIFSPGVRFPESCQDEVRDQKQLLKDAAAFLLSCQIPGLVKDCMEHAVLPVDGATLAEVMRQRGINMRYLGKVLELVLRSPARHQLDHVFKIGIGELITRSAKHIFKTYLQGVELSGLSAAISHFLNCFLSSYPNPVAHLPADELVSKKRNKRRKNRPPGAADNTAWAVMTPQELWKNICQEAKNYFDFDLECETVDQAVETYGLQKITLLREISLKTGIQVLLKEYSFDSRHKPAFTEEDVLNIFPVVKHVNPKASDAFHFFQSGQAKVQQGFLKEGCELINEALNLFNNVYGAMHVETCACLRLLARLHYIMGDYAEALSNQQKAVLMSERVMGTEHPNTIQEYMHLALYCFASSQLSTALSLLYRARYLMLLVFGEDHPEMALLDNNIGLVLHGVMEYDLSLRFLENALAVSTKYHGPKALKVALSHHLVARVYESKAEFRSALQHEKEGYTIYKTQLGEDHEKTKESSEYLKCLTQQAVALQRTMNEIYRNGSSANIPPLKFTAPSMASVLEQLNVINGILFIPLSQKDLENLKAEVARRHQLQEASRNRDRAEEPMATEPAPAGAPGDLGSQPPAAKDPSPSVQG
UniProt P61024, whole entry, looked up: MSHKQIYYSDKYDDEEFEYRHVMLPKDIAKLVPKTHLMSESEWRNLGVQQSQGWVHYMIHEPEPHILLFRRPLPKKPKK
UniProt Q9ULV3: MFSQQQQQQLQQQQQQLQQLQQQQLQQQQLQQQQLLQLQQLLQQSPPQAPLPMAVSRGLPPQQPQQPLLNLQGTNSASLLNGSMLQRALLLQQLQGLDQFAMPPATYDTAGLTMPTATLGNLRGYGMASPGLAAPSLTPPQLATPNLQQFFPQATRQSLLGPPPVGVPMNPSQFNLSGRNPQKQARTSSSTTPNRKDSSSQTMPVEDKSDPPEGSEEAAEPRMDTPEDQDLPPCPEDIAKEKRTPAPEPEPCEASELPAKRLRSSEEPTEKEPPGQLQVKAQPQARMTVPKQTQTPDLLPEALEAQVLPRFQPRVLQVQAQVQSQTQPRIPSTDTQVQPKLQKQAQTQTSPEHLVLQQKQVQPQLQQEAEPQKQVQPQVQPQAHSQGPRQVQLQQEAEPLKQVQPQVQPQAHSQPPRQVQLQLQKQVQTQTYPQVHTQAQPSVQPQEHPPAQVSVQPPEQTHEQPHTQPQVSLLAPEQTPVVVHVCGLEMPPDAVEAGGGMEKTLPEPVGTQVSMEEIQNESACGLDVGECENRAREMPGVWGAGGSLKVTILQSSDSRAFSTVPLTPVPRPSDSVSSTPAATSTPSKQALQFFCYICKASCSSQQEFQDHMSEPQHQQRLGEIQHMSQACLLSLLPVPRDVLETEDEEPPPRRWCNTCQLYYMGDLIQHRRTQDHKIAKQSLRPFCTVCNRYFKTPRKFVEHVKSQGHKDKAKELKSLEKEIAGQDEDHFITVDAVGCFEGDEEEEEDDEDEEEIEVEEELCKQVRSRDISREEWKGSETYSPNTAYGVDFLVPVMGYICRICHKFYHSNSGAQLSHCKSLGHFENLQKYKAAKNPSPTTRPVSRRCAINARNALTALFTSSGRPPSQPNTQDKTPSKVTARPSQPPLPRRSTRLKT
UniProt O43405: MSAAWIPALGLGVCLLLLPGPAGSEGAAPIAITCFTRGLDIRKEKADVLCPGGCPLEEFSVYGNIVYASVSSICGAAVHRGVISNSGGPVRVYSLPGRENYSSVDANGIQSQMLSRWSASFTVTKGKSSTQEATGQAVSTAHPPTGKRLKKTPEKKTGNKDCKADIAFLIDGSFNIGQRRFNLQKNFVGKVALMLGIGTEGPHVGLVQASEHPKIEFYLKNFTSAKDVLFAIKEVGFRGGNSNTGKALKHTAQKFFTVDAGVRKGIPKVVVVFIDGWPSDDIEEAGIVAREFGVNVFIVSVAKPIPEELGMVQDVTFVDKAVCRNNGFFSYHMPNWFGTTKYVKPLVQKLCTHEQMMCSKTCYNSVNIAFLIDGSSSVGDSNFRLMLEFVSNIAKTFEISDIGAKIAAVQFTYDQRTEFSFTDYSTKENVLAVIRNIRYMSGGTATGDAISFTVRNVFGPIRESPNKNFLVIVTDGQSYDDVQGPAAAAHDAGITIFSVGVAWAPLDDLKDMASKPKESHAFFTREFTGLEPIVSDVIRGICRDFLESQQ
UniProt Q96JB2: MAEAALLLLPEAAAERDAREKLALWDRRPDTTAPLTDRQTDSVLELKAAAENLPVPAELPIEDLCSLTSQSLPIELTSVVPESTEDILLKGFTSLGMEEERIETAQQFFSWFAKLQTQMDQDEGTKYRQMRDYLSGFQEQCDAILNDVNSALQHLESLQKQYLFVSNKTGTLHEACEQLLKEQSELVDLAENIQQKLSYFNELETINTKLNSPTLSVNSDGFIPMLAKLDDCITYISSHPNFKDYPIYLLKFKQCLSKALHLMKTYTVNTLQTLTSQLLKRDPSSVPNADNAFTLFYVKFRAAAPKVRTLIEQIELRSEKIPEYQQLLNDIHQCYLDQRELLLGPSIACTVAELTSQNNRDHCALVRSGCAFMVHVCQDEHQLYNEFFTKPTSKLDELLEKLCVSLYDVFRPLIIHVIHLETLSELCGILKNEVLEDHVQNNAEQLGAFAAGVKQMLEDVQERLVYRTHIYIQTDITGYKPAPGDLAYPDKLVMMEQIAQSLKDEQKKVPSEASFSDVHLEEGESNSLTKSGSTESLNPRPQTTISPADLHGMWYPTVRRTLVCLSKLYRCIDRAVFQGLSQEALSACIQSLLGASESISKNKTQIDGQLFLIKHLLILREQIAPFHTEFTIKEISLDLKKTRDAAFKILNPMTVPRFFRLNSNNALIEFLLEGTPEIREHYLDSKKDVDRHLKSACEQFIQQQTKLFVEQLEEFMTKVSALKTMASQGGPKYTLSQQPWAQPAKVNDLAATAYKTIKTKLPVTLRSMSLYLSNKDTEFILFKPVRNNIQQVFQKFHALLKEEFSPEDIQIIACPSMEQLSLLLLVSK
UniProt Q9UBY8, whole entry, looked up: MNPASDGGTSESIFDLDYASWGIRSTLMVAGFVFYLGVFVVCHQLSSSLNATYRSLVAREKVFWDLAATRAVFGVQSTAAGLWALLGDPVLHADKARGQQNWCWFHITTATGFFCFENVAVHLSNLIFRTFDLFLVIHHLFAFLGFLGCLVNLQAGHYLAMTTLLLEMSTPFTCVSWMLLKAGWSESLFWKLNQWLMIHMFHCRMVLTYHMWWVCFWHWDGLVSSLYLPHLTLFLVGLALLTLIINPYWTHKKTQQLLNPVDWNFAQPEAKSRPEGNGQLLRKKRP

Columns and labels:
Test in all cases: log2 fold change, soluble protein after heating vs DMSO (PISA); higher = thermal stabilisation; K562 cells, 10 uM, 30 min; active = over 0.2 and 3.5 SD of the protein, either way, in both replicates (recomputed)
[1] = compound: CC[C@@H]1C(=O)N(C)c2cnc(Nc3ccc(C(=O)NC4CCN(C)CC4)cc3OC)nc2N1C1CCCC1
How it was run: (§1)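 Thermal stability values are relative to control samples and come from duplicates. They are expressed as log2 fold changes. For measurement, K562 cells (2×10^6 cells/mL) received 10 μM compound for 30 min, and aliquots were heated for 3 min over 48°C-58°C, pooled, and extracted at 4°C in PBS with 0.5% NP-40. Soluble protein, the supernatant after 21,000xg for 90 min, was quantified by TMTpro 16plex LC-MS/MS with equalised channel sums.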

volasertib = compound: CC[C@@H]1C(=O)N(C)c2cnc(Nc3ccc(C(=O)N[C@H]4CC[C@H](N5CCN(CC6CC6)CC5)CC4)cc3OC)nc2N1C(C)C [volasertib]
How it was run: as §1

[2] = compound: CC[C@H](C)N1C=C(C2=C(C=C(C=C21)C3=CN=C(C=C3)N4CCNCC4)C(=O)NCC5=C(C=C(NC5=O)C)C)C
How it was run: as §1

epoxomicin = compound: CC[C@H](C)[C@@H](C(=O)N[C@@H]([C@@H](C)O)C(=O)N[C@@H](CC(C)C)C(=O)[C@]1(CO1)C)NC(=O)[C@H]([C@@H](C)CC)N(C)C(=O)C [epoxomicin]
How it was run: as §1

[3] = compound: CCn1cc(-c2ccnc3[nH]c(-c4cccc(CN(C)C)c4)cc23)c(-c2ccc(NC(=O)N(C)C)cc2)n1
How it was run: as §1

[4] = compound: CN(C)CC(=O)Nc1ccc2[nH]c(=O)c3ccccc3c2c1
How it was run: as §1

rosiglitazone = compound: CN(CCOC1=CC=C(C=C1)C[C@H]2C(=O)NC(=O)S2)C3=CC=CC=N3 (racemic) [rosiglitazone]
How it was run: as §1

[5] = compound: CN1C2=C(C3=C1C(=O)N(N=C3)CC4=CC(=CC=C4)N)SC(=C2)S(=O)C
How it was run: as §1

[6] = compound: CN1CCC(CNc2ccc3ncc(-c4cccc(OC(F)(F)F)c4)n3n2)CC1
How it was run: as §1

saracatinib = compound: CN1CCN(CCOc2cc(OC3CCOCC3)c3c(Nc4c(Cl)ccc5c4OCO5)ncnc3c2)CC1 [saracatinib]
How it was run: as §1

sotrastaurin = compound: CN1CCN(c2nc(C3=C(c4c[nH]c5ccccc45)C(=O)NC3=O)c3ccccc3n2)CC1 [sotrastaurin]
How it was run: as §1

Tubastatin A = compound: CN1CCc2c(c3ccccc3n2Cc2ccc(C(=O)NO)cc2)C1 [Tubastatin A]
How it was run: as §1

[7] = compound: CNC(=O)C1=CC=CC=C1NC2=NC(=NC=C2Cl)NC3=C(C=C(C=C3)N4CCOCC4)OC
How it was run: as §1

defactinib = compound: CNC(=O)c1ccc(Nc2ncc(C(F)(F)F)c(NCc3nccnc3N(C)S(C)(=O)=O)n2)cc1 [defactinib]
How it was run: as §1

rucaparib = compound: CNCc1ccc(-c2[nH]c3cc(F)cc4c3c2CCNC4=O)cc1 [rucaparib]
How it was run: as §1

[8] = compound: CNc1nc(-c2ccc3c(N)n[nH]c3c2)cc(N2C[C@@H](C(=O)NC3CCCCC3)CC[C@H]2C)n1
How it was run: as §1

encorafenib = compound: COC(=O)N[C@@H](C)CNc1nccc(-c2cn(C(C)C)nc2-c2cc(Cl)cc(NS(C)(=O)=O)c2F)n1 [encorafenib]
How it was run: as §1

[9] = compound: COC(=O)[C@H](CCSC)NC(=O)C1=C(C=C(C=C1)NC[C@H](CS)N)C2=CC=CC=C2
How it was run: as §1

alvocidib = compound: CN1CC[C@H](c2c(O)cc(O)c3c(=O)cc(-c4ccccc4Cl)oc23)[C@H](O)C1 [alvocidib]
How it was run: as §1

[10] = compound: CCn1c(C(=O)N(C2CC2)C2CC2)cc2c3c(ncn3C)c(Nc3cc(C)n(C)n3)nc21
How it was run: as §1

Target | log2 fold change [1] | log2 fold change (volasertib) | log2 fold change [2] | log2 fold change (epoxomicin) | log2 fold change [3] | log2 fold change [4] | log2 fold change (rosiglitazone) | log2 fold change [5] | log2 fold change [6] | log2 fold change (saracatinib) | log2 fold change (sotrastaurin) | log2 fold change (Tubastatin A) | log2 fold change [7] | log2 fold change (defactinib) | log2 fold change (rucaparib) | log2 fold change [8] | log2 fold change (encorafenib) | log2 fold change [9] | log2 fold change (alvocidib) | log2 fold change [10]
CMTM3 (UniProt Q96MX0) | inactive: 0.066 | inactive: -0.088 | inactive: -0.061 | inactive: 0.075 | inactive: 0.057 | inactive: 0.02 | active: -0.324 | inactive: 0.048 | inactive: -0.122 | inactive: -0.006 | inactive: -0.01 | inactive: -0.012 | inactive: -0.019 | inactive: -0.096 | inactive: 0.129 | inactive: -0.075 | inactive: -0.072 | inactive: 0.05 | – | –
CIRBP (UniProt Q14011) | inactive: 0.239 | inactive: 0.084 | inactive: -0.021 | inactive: -0.501 | inactive: 0.106 | inactive: -0.34 | inactive: -0.132 | inactive: 0.093 | inactive: 0.206 | inactive: -0.104 | – | inactive: 0.042 | – | inactive: 0.034 | inactive: 0.308 | inactive: 0.078 | inactive: 0.042 | inactive: 0.201 | inactive: 0.164 | –
CLPTM1L (UniProt Q96KA5) | inactive: -0.067 | inactive: -0.185 | inactive: 0.005 | inactive: 0.013 | inactive: -0.051 | inactive: 0.023 | – | inactive: -0.023 | inactive: -0.188 | inactive: 0.11 | inactive: -0.013 | inactive: -0.008 | inactive: -0.057 | inactive: -0.042 | inactive: -0.011 | inactive: -0.099 | inactive: 0.021 | inactive: 0.043 | – | –
CLUH, A0A494C0R8 | inactive: 0.183 | inactive: 0.42 | inactive: 0.006 | inactive: -0.017 | inactive: 0.078 | inactive: 0.116 | – | inactive: 0.101 | inactive: 0.203 | inactive: -0.037 | inactive: -0.058 | inactive: -0.088 | inactive: 0.09 | inactive: -0.068 | inactive: 0.16 | inactive: 0.138 | inactive: 0.032 | inactive: 0.102 | – | –
CLASP2 isoform 3 (UniProt O75122) | inactive: -0.175 | active: -0.326 | inactive: 0.054 | inactive: 0.034 | inactive: -0.024 | inactive: 0.051 | – | inactive: 0 | active: -0.227 | inactive: -0.073 | inactive: -0.232 | inactive: 0.016 | inactive: -0.041 | inactive: -0.1 | inactive: 0.015 | inactive: 0.035 | inactive: 0.084 | inactive: -0.043 | – | –
CNOT2 (UniProt Q9NZN8) | inactive: -0.035 | inactive: -0.168 | inactive: 0.021 | inactive: -0.034 | inactive: 0.085 | inactive: 0.015 | – | inactive: 0.062 | inactive: -0.027 | inactive: -0.044 | inactive: 0.007 | inactive: -0.005 | inactive: -0.006 | inactive: -0.024 | inactive: 0.052 | inactive: 0 | inactive: 0.012 | inactive: -0.021 | – | –
CNOT7 (UniProt Q9UIV1) | inactive: -0.086 | active: -0.305 | inactive: -0.049 | inactive: -0.053 | inactive: -0.052 | inactive: -0.121 | – | inactive: 0.021 | inactive: -0.082 | inactive: 0.008 | inactive: -0.044 | inactive: 0.004 | inactive: -0.035 | inactive: 0.018 | inactive: 0.051 | inactive: 0.104 | inactive: 0.113 | inactive: -0.109 | – | –
CKB (UniProt P12277) | inactive: 0.002 | active: 0.265 | inactive: 0.008 | inactive: 0.044 | inactive: -0.108 | inactive: 0.009 | – | inactive: -0.111 | inactive: -0.056 | inactive: -0.041 | inactive: 0.019 | inactive: -0.004 | inactive: -0.016 | inactive: -0.006 | inactive: -0.059 | inactive: 0.043 | inactive: 0.015 | inactive: -0.011 | – | –
CLSPN (UniProt Q9HAW4) | inactive: -0.017 | inactive: -0.159 | inactive: -0.019 | inactive: 0.037 | inactive: 0.031 | inactive: -0.048 | – | inactive: 0.04 | inactive: -0.02 | inactive: 0.076 | inactive: 0.002 | inactive: 0.039 | inactive: 0.053 | inactive: -0.183 | inactive: -0.11 | inactive: -0.102 | inactive: 0.031 | inactive: 0.047 | – | –
CNDP2 (UniProt Q96KP4) | inactive: -0.037 | inactive: 0.014 | inactive: -0.003 | inactive: -0.012 | inactive: -0.1 | inactive: -0.002 | – | inactive: -0.103 | inactive: -0.149 | inactive: -0.016 | inactive: -0.003 | active: -0.226 | inactive: -0.014 | inactive: -0.006 | inactive: -0.041 | inactive: 0.028 | inactive: 0.001 | inactive: 0.124 | – | –
CLUH (UniProt O75153) | inactive: 0.225 | active: 0.632 | inactive: 0.015 | inactive: -0.028 | inactive: -0.113 | inactive: 0.094 | – | inactive: 0.019 | active: 0.387 | inactive: -0.032 | inactive: -0.141 | inactive: 0.033 | inactive: -0.049 | inactive: -0.04 | inactive: 0.239 | inactive: 0.133 | inactive: -0.044 | inactive: -0.046 | – | –
CKS1B (UniProt P61024) | inactive: -0.028 | inactive: 0.068 | inactive: 0.094 | inactive: 0.014 | inactive: 0.041 | inactive: -0.024 | – | inactive: 0.022 | inactive: -0.006 | inactive: 0.06 | inactive: 0.059 | inactive: -0.045 | inactive: -0.01 | inactive: -0.054 | inactive: -0.047 | inactive: -0.057 | inactive: 0.01 | inactive: -0.1 | – | –
CIZ1 (UniProt Q9ULV3) | inactive: 0.071 | inactive: -0.022 | inactive: 0.046 | inactive: 0.086 | inactive: 0.017 | inactive: -0.011 | – | inactive: 0.015 | inactive: -0.035 | inactive: 0.046 | inactive: -0.075 | inactive: 0.102 | inactive: -0.11 | inactive: -0.117 | inactive: 0.027 | inactive: -0.109 | inactive: -0.038 | inactive: -0.001 | – | –
COA6 isoform 2 (UniProt Q5JTJ3) | inactive: 0.045 | inactive: 0.04 | inactive: -0.004 | inactive: 0.079 | inactive: 0.045 | inactive: -0.023 | – | inactive: -0.16 | inactive: 0.022 | inactive: 0.175 | inactive: 0.063 | inactive: 0.07 | inactive: 0.354 | inactive: -0.022 | inactive: -0.068 | inactive: 0.138 | inactive: -0.055 | inactive: 0.072 | – | –
COCH (UniProt O43405) | inactive: 0.117 | inactive: -0.08 | inactive: -0.065 | inactive: -0.153 | inactive: 0.075 | inactive: -0.127 | – | inactive: 0.007 | inactive: 0.076 | inactive: 0.126 | inactive: 0.01 | inactive: -0.036 | inactive: 0.031 | inactive: 0.1 | inactive: 0.011 | inactive: -0.139 | inactive: -0.074 | inactive: 0.05 | – | –
COG3 (UniProt Q96JB2) | inactive: 0.047 | – | – | inactive: -0.074 | – | inactive: -0.014 | inactive: -0.083 | inactive: 0.172 | – | inactive: -0.144 | – | – | inactive: 0.301 | inactive: 0.154 | inactive: 0.256 | inactive: 0.062 | inactive: 0.034 | inactive: -0.179 | inactive: 0.101 | inactive: -0.407
CLN8 (UniProt Q9UBY8) | inactive: 0.069 | inactive: 0.001 | inactive: 0.077 | – | inactive: 0.005 | inactive: 0.145 | – | inactive: 0.135 | inactive: 0.191 | inactive: 0.073 | inactive: 0.107 | inactive: -0.225 | inactive: 0.022 | inactive: -0.062 | inactive: -0.061 | inactive: -0.292 | inactive: -0.117 | inactive: 0.05 | – | –

In a second layout: entries from further up
Target	log2 fold change [1]	log2 fold change (volasertib)	log2 fold change [2]	log2 fold change (epoxomicin)	log2 fold change [3]	log2 fold change [4]	log2 fold change (rosiglitazone)	log2 fold change [5]	log2 fold change [6]	log2 fold change (saracatinib)	log2 fold change (sotrastaurin)	log2 fold change (Tubastatin A)	log2 fold change [7]	log2 fold change (defactinib)	log2 fold change (rucaparib)	log2 fold change [8]	log2 fold change (encorafenib)	log2 fold change [9]	log2 fold change (alvocidib)	log2 fold change [10]
CLUH (UniProt O75153)	inactive: 0.225	active: 0.632	inactive: 0.015	inactive: -0.028	inactive: -0.113	inactive: 0.094	–	inactive: 0.019	active: 0.387	inactive: -0.032	inactive: -0.141	inactive: 0.033	inactive: -0.049	inactive: -0.04	inactive: 0.239	inactive: 0.133	inactive: -0.044	inactive: -0.046	–	–
CKS1B (UniProt P61024)	inactive: -0.028	inactive: 0.068	inactive: 0.094	inactive: 0.014	inactive: 0.041	inactive: -0.024	–	inactive: 0.022	inactive: -0.006	inactive: 0.06	inactive: 0.059	inactive: -0.045	inactive: -0.01	inactive: -0.054	inactive: -0.047	inactive: -0.057	inactive: 0.01	inactive: -0.1	–	–
CIZ1 (UniProt Q9ULV3)	inactive: 0.071	inactive: -0.022	inactive: 0.046	inactive: 0.086	inactive: 0.017	inactive: -0.011	–	inactive: 0.015	inactive: -0.035	inactive: 0.046	inactive: -0.075	inactive: 0.102	inactive: -0.11	inactive: -0.117	inactive: 0.027	inactive: -0.109	inactive: -0.038	inactive: -0.001	–	–
